Reference: PubChem BioAssay AID686937 (Drosophila RNAi Screening Center, 2013)
The deposit covers about 23,000 reagents; shown is an unselected part of those with a known target gene and a result. 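Reduced-secretion tags in replicate 1 do not always agree with the z-scores; no criterion for assigning the tags was given.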 Not all columns of the deposit are shown. Not given: the amount of reagent.

Screen: 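Knock-downs that reduce output of a secreted reporter enzyme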 (primary screen)
Cell system: Drosophila S2 cells expressing secreted horseradish peroxidase
Knock-down reagent: long dsRNA against Drosophila genes
Timing: about 5.5 days (5 days dsRNA, then 12 h reporter induction)
Conditions: reporter expression induced after 5 days of dsRNA, read 12 h later; inducer not stated
Detection: 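Chemiluminescent measurement of peroxidase in the medium 12 h after reporter induction, following 5 days of dsRNA, given as a z-score per plate; higher means more secretion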
Reading the numbers: z-score: higher = more reporter secreted into medium

After knock-down of CG32801 (GeneID 31152) [DRSC17964], the record shows z-score, replicate 1 = 0.16.
With knock-down of sll (GeneID 42115) [DRSC16271] the results were z-score, replicate 1 = 0.21.
After knock-down of CG12278 (GeneID 42486) [DRSC14494] the results were z-score, replicate 1 = -0.15.
CG2224 (GeneID 43617) [DRSC15429] showed z-score, replicate 1 = 0.18.
Silencing of veil (GeneID 36968) [DRSC06892] came out at: z-score, replicate 1 = 0.18.
Silencing of CG30495 (GeneID 246651) [DRSC06703] resulted in: z-score, replicate 1 = 0.3.
CG1231 (GeneID 38060) [DRSC08267] showed z-score, replicate 1 = 0.65.
scramb1 (GeneID 326186) [DRSC09724] scored z-score, replicate 1 = 0.51.
After knock-down of scramb1 (GeneID 326186) [DRSC10667] the results were z-score, replicate 1 = 0.44.
Knock-down of scramb1 (GeneID 326186) [DRSC10668] gave: z-score, replicate 1 = 0.48.

Reprinted from above for reference:
CG12278 (GeneID 42486) [DRSC14494] → z-score, replicate 1: -0.15
CG2224 (GeneID 43617) [DRSC15429] → z-score, replicate 1: 0.18

More entries follow:
After knock-down of CG5866 (GeneID 42097) [DRSC15900], the screen gave z-score, replicate 1 = 0.6.
After knock-down of eIF4G2 (GeneID 42819) [DRSC14207], the screen gave z-score, replicate 1 = 0.2.
Silencing of eIF4G2 (GeneID 42819) [DRSC21739] gave: z-score, replicate 1 = -0.59.
With knock-down of mtTFB2 (GeneID 41228) [DRSC15519], the screen gave z-score, replicate 1 = 0.46.
With knock-down of CG11970 (GeneID 41072) [DRSC14157] the results were z-score, replicate 1 = 0.26.
Silencing of CG8188 (GeneID 32751) [DRSC20090] came out at: z-score, replicate 1 = 0.15.
